Measurements published in US5376635A, “Fluorine containing atrial natriuretic peptides” (Bio-Mega/Boehringer Ingelheim Research Inc., priority 1987, dated 1994).
Not every detail of the peptide structures is certain; ends, links or a residue may be inferred. Positions of bridges follow the written chain, without caps; N, C: chain ends. Non-standard residues stand in square brackets, D forms with d. Residues, ends and D or L forms follow the SMILES beside them. Phe(4-F) = N[C@@H](Cc1ccc(F)cc1)C(=O)O; Mpa = O=C(O)CCS

Assays:
[1] = test system: conscious normotensive rat; test: Diuretic assay in the conscious normotensive rat; assay type: in vivo; conditions: for Electrolyte excretion Cl-, Control / Electrolyte excretion K+, Control / Electrolyte excretion Na+, Control / Urine volume, Control: control period before infusion; for Urine volume, Control / Urine volume, Treated: average of 3 consecutive collections
[2] = test system: DOCA-saline treated hypertensive rats; test: Blood pressure lowering in DOCA-saline treated hypertensive rats; assay type: in vivo, rat; conditions: on a molar basis as compared to hANP(99-126); i.v. infusion, 20 minute intervals at increasing amounts
rabbit aorta = test: Rabbit aorta assay (vasorelaxant activity, phenylephrine-contracted aortic rings); conditions: for Relative potency: obtained by comparing median effective concentrations (EC50's); for Relative duration: time from onset to 50% recovery at EC50
[3] = i.v. infusion 0.5 μg/kg/min over 30 min
[4] = i.v. infusion 0.1 μg/kg/min over 30 min

Row | SMILES | Electrolyte excretion Cl-, Control ([1]; group dosed 0.5 μg/kg/min) | Electrolyte excretion K+, Control ([1]; group dosed 0.5 μg/kg/min) | Electrolyte excretion Na+, Control ([1]; group dosed 0.5 μg/kg/min) | Urine volume, Control ([1]; group dosed 0.5 μg/kg/min) | Electrolyte excretion Cl-, Treated [1, 3] | Electrolyte excretion K+, Treated [1, 3] | Electrolyte excretion Na+, Treated [1, 3] | Urine volume, Treated [1, 3] | Relative potency (rabbit aorta; relative to hANP(99-126) = 1) | Relative duration (rabbit aorta; relative to hANP(99-126) = 1) | further results
1 | CC[C@H](C)[C@@H]1NC(=O)[C@H](CCCNC(=N)N)NC(=O)[C@H](CC(=O)O)NC(=O)[C@H](CCSC)NC(=O)[C@H](CCCNC(=N)N)NC(=O)CNC(=O)CNC(=O)[C@H](Cc2ccccc2)NC(=O)[C@@H](NC(=O)[C@H](CO)NC(=O)[C@H](CO)NC(=O)[C@H](CCCNC(=N)N)NC(=O)[C@H](CCCNC(=N)N)NC(=O)[C@H](CC(C)C)NC(=O)[C@@H](N)CO)CSSC[C@@H](C(=O)N[C@@H](CC(N)=O)C(=O)N[C@@H](CO)C(=O)N[C@@H](Cc2ccc(F)cc2)C(=O)N[C@@H](CCCNC(=N)N)C(=O)N[C@@H](Cc2ccc(O)cc2)C(=O)O)NC(=O)CNC(=O)[C@H](CC(C)C)NC(=O)CNC(=O)[C@H](CO)NC(=O)[C@H](CCC(N)=O)NC(=O)[C@H](C)NC(=O)CNC1=O [(4FPhe^124) hANP (99-126), (4FPhe^124)hANP(99-126)] | 38.9 μmol/10 minute collection peri | 38.3 μmol/10 minute collection peri | 17.7 μmol/10 minute collection peri | 0.59 ml/10 minute collection period | 116.0 μmol/10 minute collection peri | 54.6 μmol/10 minute collection peri | 73.9 μmol/10 minute collection peri | 0.89 ml/10 minute collection period | 0.94 | 0.97 | relative potency (blood pressure lowering) [2]: 2.7
2 | CC[C@H](C)[C@@H]1NC(=O)[C@H](CCCNC(=N)N)NC(=O)[C@H](CC(=O)O)NC(=O)[C@H]([C@@H](C)CC)NC(=O)[C@H](CCCNC(=N)N)NC(=O)CNC(=O)[C@@H](C)NC(=O)[C@H](Cc2ccc(F)cc2)NC(=O)CCSSC[C@@H](C(=O)N[C@@H](CC(N)=O)C(=O)N[C@@H](CO)C(=O)N[C@@H](Cc2ccccc2)C(=O)N[C@@H](CCCNC(=N)N)C(=O)N[C@@H](Cc2ccc(O)cc2)C(=O)O)NC(=O)CNC(=O)[C@H](CC(C)C)NC(=O)CNC(=O)[C@H](CO)NC(=O)[C@H](CCC(N)=O)NC(=O)[C@H](C)NC(=O)CNC1=O [(SCH2 CH2 CO^105,4FPhe^106,D-Ala^107)rANP(105-126)] ([Mpa][Phe(4-F)][dA]GRIDRIGAQSGLGCNSFRY-OH; disulfide 1-17) | – | – | – | – | – | – | – | – | – | – | Relative potency (rabbit aorta; relative to rANP(103-126) = 1): 1.3; Relative duration (rabbit aorta; relative to rANP(103-126) = 1): 1.26
3 | CC[C@H](C)[C@@H]1NC(=O)[C@H](CCCNC(=N)N)NC(=O)[C@H](CC(=O)O)NC(=O)[C@H](CCSC)NC(=O)[C@H](CCCNC(=N)N)NC(=O)CNC(=O)CNC(=O)[C@H](Cc2ccccc2)NC(=O)[C@@H](NC(=O)[C@H](CO)NC(=O)[C@H](CO)NC(=O)[C@H](CCCNC(=N)N)NC(=O)[C@H](CCCNC(=N)N)NC(=O)[C@H](CC(C)C)NC(=O)[C@@H](N)CO)CSSC[C@@H](C(=O)N[C@@H](CC(N)=O)C(=O)N[C@@H](CO)C(=O)N[C@@H](Cc2ccccc2)C(=O)N[C@@H](CCCNC(=N)N)C(=O)N[C@@H](Cc2ccc(O)cc2)C(=O)O)NC(=O)CNC(=O)[C@H](CC(C)C)NC(=O)CNC(=O)[C@H](CO)NC(=O)[C@H](CCC(N)=O)NC(=O)[C@H](C)NC(=O)CNC1=O [hANP (99-126), hANP(99-126), reference compound] | 46.9 μmol/10 minute collection peri | 43.4 μmol/10 minute collection peri | 17.4 μmol/10 minute collection peri | 0.3 ml/10 minute collection period | 110.8 μmol/10 minute collection peri | 60.7 μmol/10 minute collection peri | 60.7 μmol/10 minute collection peri | 0.92 ml/10 minute collection period | 1. | 1. | Electrolyte excretion Cl-, Control ([1]; group dosed 0.1 μg/kg/min): 37.6 μmol/10 minute collection peri; Electrolyte excretion K+, Control ([1]; group dosed 0.1 μg/kg/min): 40.3 μmol/10 minute collection peri; Electrolyte excretion Na+, Control ([1]; group dosed 0.1 μg/kg/min): 16.0 μmol/10 minute collection peri; Urine volume, Control ([1]; group dosed 0.1 μg/kg/min): 0.71 ml/10 minute collection period; Electrolyte excretion Cl-, Treated [1, 4]: 68.3 μmol/10 minute collection peri; Electrolyte excretion K+, Treated [1, 4]: 50.3 μmol/10 minute collection peri; Electrolyte excretion Na+, Treated [1, 4]: 29.6 μmol/10 minute collection peri; Urine volume, Treated [1, 4]: 0.65 ml/10 minute collection period
